Our source for the binding values is publication PMC5566832.

The chains behind the UniProt entries cited, without tags or fusion partners. Residues count along the entry.
UniProt Q4U9M9, residues 20-873: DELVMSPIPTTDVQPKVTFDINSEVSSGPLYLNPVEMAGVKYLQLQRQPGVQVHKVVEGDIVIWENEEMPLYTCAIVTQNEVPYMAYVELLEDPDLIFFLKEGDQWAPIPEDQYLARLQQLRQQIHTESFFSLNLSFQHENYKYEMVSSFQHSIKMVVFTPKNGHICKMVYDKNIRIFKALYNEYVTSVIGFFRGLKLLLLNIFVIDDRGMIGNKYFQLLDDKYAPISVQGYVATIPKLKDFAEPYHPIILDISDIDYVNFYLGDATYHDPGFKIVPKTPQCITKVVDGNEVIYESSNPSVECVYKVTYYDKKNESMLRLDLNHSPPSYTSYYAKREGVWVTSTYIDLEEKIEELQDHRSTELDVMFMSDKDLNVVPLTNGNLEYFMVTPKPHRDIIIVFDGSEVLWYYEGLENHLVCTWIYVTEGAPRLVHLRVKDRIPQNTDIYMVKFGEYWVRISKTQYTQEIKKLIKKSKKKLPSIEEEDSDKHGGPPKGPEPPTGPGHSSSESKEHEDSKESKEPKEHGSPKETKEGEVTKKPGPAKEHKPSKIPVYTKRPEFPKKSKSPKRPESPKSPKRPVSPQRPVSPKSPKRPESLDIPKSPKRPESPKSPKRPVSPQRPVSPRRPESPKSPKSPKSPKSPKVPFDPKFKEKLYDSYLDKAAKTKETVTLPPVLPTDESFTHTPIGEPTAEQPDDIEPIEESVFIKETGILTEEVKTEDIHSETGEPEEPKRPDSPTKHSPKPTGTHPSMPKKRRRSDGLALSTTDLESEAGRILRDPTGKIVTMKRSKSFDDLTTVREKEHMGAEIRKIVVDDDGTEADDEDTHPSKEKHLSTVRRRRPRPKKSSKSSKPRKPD

No constants are given. Whether binding was seen depends on the method and setting. In cells and extracts the contact can be indirect. Some binding calls cover weakened binding; strength is not graded here. Sequences can lack the tags named with a protein.

This test addresses T1, GFP-CLASP1_(1256-1538) (the kinetochore-binding domain of CLASP1) (human) (UniProt Q7Z460).
T1 sequence: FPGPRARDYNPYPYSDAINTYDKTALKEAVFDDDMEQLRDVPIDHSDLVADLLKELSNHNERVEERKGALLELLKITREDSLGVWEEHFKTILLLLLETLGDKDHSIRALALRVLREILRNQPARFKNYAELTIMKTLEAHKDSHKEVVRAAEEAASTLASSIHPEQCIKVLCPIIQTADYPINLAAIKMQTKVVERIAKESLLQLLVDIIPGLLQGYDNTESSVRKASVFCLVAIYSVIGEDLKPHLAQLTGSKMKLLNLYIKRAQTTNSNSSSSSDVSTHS
In words: co-IP; GFP-TRAP magnetic beads on lysate of TaC12 cells transduced with GFP-CLASP1(1256-1538); lysis buffer with 0.5% NP-40; Western blot; control: nontransduced TaC12.

As to “T. annulata schizont membrane protein p104 (TA08425), endogenous (from UniProt Q4U9M9 20-873)”, the binding result is reported as “binds”.

B1: bovine EB1 (end-binding protein 1), host cell (protein, UniProt Q3ZBD9 1-268)
chain: MAVNVYSTSVTSDNLSRHDMLAWINESLQLNLTKIEQLCSGAAYCQFMDMLFPGSIALKKVKFQAKLEHEYIQNFKILQAGFKRMGVDKIIPVDKLVKGKFQDNFEFVQWFKKFFDANYDGKEYDPVAARQGQETAMAPSLVAPALNKPKKPLSSSSAAPQRPITTHRTTATPKAGPGVVRKNPGVGNGDDEAAELMQQVNVLKLTVEDLEKERDFYFGKLRNIELICQENEGENNPVLQRIVDILYATDEGFVIPDEGGPQEEQEEY
B1: the binding result is “no binding”.
